The source of these data is article PMC6424098.

By UniProt entry, the sequences of proteins in these tests, tags left out. Where a name states a change or a piece, a line headed by the entry shows the natural chain unless it says otherwise.
UniProt Q05826: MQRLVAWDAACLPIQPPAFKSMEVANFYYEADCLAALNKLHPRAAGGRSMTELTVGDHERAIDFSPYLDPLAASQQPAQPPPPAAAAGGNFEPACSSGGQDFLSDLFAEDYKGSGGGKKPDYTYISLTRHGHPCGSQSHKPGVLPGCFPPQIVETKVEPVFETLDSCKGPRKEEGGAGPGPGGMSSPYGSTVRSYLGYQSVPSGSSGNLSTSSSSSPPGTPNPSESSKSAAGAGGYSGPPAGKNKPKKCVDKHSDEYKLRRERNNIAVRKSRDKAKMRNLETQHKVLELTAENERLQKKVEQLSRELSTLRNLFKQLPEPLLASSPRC
UniProt Q92830: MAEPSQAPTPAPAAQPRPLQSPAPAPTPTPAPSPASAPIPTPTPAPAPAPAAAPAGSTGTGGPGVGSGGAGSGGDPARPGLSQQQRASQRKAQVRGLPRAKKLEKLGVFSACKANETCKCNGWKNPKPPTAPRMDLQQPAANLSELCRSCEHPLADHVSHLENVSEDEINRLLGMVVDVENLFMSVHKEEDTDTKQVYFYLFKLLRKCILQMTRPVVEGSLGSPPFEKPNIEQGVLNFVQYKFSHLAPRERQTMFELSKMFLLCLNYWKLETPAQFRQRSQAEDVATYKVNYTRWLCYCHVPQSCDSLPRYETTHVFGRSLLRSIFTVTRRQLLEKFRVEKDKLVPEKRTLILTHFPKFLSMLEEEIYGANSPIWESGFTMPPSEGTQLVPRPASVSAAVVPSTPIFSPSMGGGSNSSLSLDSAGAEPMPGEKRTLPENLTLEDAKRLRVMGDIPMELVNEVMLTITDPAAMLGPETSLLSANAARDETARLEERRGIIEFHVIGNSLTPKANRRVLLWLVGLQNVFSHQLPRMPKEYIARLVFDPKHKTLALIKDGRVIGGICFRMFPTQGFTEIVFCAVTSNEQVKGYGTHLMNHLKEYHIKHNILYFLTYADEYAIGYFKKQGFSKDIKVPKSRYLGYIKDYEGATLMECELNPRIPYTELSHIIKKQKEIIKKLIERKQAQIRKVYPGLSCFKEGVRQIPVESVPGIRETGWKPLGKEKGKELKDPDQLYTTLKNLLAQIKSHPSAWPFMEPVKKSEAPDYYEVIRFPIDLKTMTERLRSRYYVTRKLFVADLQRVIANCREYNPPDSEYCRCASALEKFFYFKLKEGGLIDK

No constants are given. Whether binding was seen depends on the method and setting. In cells and extracts the contact can be indirect.

In this assay the target is C/EBPβ LAP*Δ7, FLAG-tagged (UniProt Q05826). In words: co-IP; FLAG-tagged C/EBPβ constructs expressed in HEK293 (HEK293T) cells and immunoprecipitated; endogenous partners detected by immunoblotting (Figures 4C, 4D, 5B, 6B right). Background: A western blot detects proteins with antibodies after separation by electrophoresis.

As to “histone acetyltransferase GCN5 of the SAGA complex (from UniProt Q92830 1-837)”, the binding result is recorded as “no binding”.
